Test results reported in PMC8128147.

Biological target: T1, occludin (human (endogenous in Caco-2; cell line not named for the co-IP)) (UniProt Q16625)
T1 sequence: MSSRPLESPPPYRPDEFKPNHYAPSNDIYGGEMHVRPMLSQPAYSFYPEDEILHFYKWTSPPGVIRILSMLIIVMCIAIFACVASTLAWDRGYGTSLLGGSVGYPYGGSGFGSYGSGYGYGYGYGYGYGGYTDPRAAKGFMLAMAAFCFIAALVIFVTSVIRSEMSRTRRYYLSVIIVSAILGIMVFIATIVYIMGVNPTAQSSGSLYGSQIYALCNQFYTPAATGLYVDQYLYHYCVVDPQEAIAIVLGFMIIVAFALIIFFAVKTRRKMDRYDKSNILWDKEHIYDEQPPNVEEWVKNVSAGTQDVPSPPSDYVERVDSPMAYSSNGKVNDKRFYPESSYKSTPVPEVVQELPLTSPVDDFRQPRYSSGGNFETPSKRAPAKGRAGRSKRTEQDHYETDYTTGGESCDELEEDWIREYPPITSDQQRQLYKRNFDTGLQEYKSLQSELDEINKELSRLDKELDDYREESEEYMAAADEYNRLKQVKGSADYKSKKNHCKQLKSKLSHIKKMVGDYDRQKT
Assay: co-IP; endogenous proteins; pre-cleared cell extracts (1 mg protein) in 50 mM Tris-HCl pH 7.4, 150 mM NaCl, 1 mM EDTA, 1% NP-40; IP with antibodies to E-cadherin, claudin-1 or occludin overnight at 4°C, Protein G beads; control IP with IgG/unrelated serum; Western blot

Substance: γ-tubulin
- binding: no binding

These are yes or no findings as the source states them, for the method shown. In cells and extracts the contact can be indirect.
